PubChem BioAssay AID1259405, NCATS, 2018

Purpose: 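Mouse-designed siRNAs used to find CHO productivity engineering targets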 (primary screen)
System: Chinese hamster CHO-K1 ovary cells with stable secreted eGFP expression
Reagent: single siRNA against mouse genes, 0.8 pmol siRNA per well (2 µl of 400 nM stock)
Duration: 3 days
Measured: 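Percent of the per-plate non-targeting control median for intracellular GFP per well by laser scanning cytometry and for cell viability by ATP luminescence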
Scale: GFP, % of control: higher = more GFP per well, higher productivity; viability (ATP), % of control: higher = more viable cells (more ATP)
Hit rule: 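Called active when intracellular GFP, relative to negative control, is at or above 120%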
Here is a random part of about 50,000 reagents. Of all reagents, about 4,000 (8%) got an active call. 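Mouse siRNA library applied to hamster cells; one well for each siRNA.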 A number with no mark means an inactive call. The numbers tell different reagents against one gene apart. No sequences are given here.

gene knocked down | reagent | GFP, % of control | viability (ATP), % of control
Tas2r123 | 1 | 76.3 | 84.6
Tas2r123 | 2 | 0.528 | 219
Tas2r123 | 3 | 65.9 | 65.6
Slc24a5 | 1 | 65.8 | 61.4
Slc24a5 | 2 | 85.4 | 71.8
Slc24a5 | 3 | 83.7 | 72.5
Arhgap18 | 1 | 134 (active) | 95.8
Arhgap18 | 2 | 98 | 88.5
Arhgap18 | 3 | 63.4 | 55.4
Tmem53 | 1 | 84 | 72.8
Tmem53 | 2 | 68.3 | 73.3
Tmem53 | 3 | 68.2 | 67.3
Wtap | 1 | 67.6 | 71.8
Wtap | 2 | 119 | 77.7
Wtap | 3 | 73 | 81
Krr1 | 1 | 82.1 | 83.1
Krr1 | 2 | 190 (active) | 81.8
Krr1 | 3 | 47.6 | 62.6
Rnf208 | 1 | 87.1 | 94.5
Rnf208 | 2 | 51 | 48.5
Rnf208 | 3 | 81.2 | 62.2
Cntn4 | 1 | 80.6 | 60.8
Cntn4 | 2 | 60.5 | 57.2
Cntn4 | 3 | 87.1 | 86.3
Mafk | 1 | 73.3 | 83.4
Mafk | 2 | 75.3 | 70.5
Mafk | 3 | 65 | 58.8
Abhd10 | 1 | 105 | 91.3
Abhd10 | 2 | 115 | 89.2
Abhd10 | 3 | 116 | 111
Or4c121 | 1 | 71.1 | 52.3
Or4c121 | 2 | 71.1 | 80.4
Or4c121 | 3 | 48.6 | 60.1
Otoa | 1 | 63.3 | 77.7
Otoa | 2 | 96.6 | 79.7
Otoa | 3 | 84.4 | 86.3
Agrp | 1 | 67.4 | 67.5
Agrp | 2 | 52.2 | 41
Agrp | 3 | 30.4 | 28.2
Apc | 1 | 92.4 | 74.1
Apc | 2 | 52.7 | 102
Dixdc1 | 1 | 66.5 | 85.8
Dixdc1 | 2 | 63.9 | 67.6
Dixdc1 | 3 | 55.9 | 67.7
Kbtbd3 | 1 | 52.5 | 60.2
Kbtbd3 | 2 | 87.1 | 77
Kbtbd3 | 3 | 79.2 | 75.2
Fzr1 | 1 | 64.8 | 67.2
Fzr1 | 2 | 136 (active) | 36.3
Fzr1 | 3 | 73.5 | 56.7
Hint3 | 1 | 67.5 | 80
Hint3 | 2 | 72.5 | 84.5
Hint3 | 3 | 59.6 | 39.9
Myo5c | 1 | 83.2 | 78.2
Myo5c | 2 | 76.6 | 88.6
Pla2g4f | 1 | 83.4 | 58
Pla2g4f | 2 | 27.7 | 31
Pla2g4f | 3 | 156 (active) | 90.9
Cfap100 | 1 | 45.1 | 43.6
Cfap100 | 2 | 73.8 | 61.4
Cfap100 | 3 | 76.6 | 86.4
Or8b101 | 1 | 109 | 85.8
Or8b101 | 2 | 67.7 | 65.5
Or8b101 | 3 | 91.9 | 0.74
Xab2 | 1 | 98.3 | 108
Xab2 | 2 | 75.6 | 91
Kcnn2 | 1 | 99.7 | 106
Kcnn2 | 2 | 66.8 | 58.5
Kcnn2 | 3 | 84.2 | 75.7
Ggt1 | 1 | 96.9 | 92.5
Ggt1 | 2 | 77.9 | 86.4
Ggt1 | 3 | 88.5 | 74.3
Timm21 | 1 | 44.6 | 41.7
Timm21 | 2 | 53.1 | 34.4
Timm21 | 3 | 77.7 | 81.6
Pax7 | 1 | 80.1 | 79.2
Pax7 | 2 | 76.9 | 84.5
Klhl18 | 1 | 47.8 | 51.4
Klhl18 | 2 | 58.1 | 60.5
Klhl18 | 3 | 118 | 91.6
Htt | 1 | 34.9 | 60.5
Htt | 2 | 100 | 96.4
Psg25 | 1 | 96 | 67.8
Psg25 | 2 | 19.8 | 26.6
Psg25 | 3 | 81.3 | 98.8

Individual results from the entries so far:
For “GFP, % of control”, Cntn4 #3 reads 87.1
Entry for Hint3 #3 in “GFP, % of control”: 59.6
Under “viability (ATP), % of control”, Or4c121 #2 reads 80.4
Pla2g4f #1, viability (ATP), % of control: 58
Result of Slc24a5 #1 under “viability (ATP), % of control”: 61.4
Fzr1 #3, GFP, % of control: 73.5
